Source: paper PMC8514509
These are yes or no findings as the source states them, for the method shown. In cells and extracts the contact can be indirect. A result given as binding can be weak or reduced; the word gives no strength. Where a sequence is shown, tags or fusion partners need not be part of it.

Target: T1, Myc-MINDY1 full length (UniProt Q8N5J2)
T1 sequence: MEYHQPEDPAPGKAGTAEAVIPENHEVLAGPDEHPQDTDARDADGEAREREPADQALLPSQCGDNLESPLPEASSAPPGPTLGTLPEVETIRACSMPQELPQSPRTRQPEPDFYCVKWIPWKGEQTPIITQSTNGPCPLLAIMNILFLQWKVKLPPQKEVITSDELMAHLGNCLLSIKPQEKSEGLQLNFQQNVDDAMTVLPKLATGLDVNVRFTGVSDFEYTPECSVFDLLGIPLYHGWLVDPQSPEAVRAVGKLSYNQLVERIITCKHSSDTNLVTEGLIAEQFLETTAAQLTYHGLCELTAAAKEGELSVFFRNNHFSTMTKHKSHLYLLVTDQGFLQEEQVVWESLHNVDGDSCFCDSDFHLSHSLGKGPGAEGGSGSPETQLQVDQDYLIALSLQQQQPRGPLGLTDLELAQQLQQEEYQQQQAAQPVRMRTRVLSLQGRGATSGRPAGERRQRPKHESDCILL
Test: co-IP; HEK293 cells transfected with 2 µg Myc-MINDY1 together with HA-ERα full length or mutants; 24 h; NP-40 lysis buffer; IP with Myc antibody, detection with HA antibody

- binding: binds
Substance: N-terminal of ERα which includes AF1 domain (HA-tagged deletion mutant) (domain or fragment)
